Experimental data taken from doi:10.1101/2020.11.23.391516.
Results are given in words; binding and its absence hold for the method and conditions named. In cells and extracts the contact can be indirect. Some entries that bind do so weakly or less than the wild type. Where a sequence is shown, tags or fusion partners need not be part of it. Blank lines part the entries; values can stand above or below the binder they belong to.

Target: T1, SOBIR1-GFP (Arabidopsis thaliana) (UniProt Q9SKB2)
T1 sequence: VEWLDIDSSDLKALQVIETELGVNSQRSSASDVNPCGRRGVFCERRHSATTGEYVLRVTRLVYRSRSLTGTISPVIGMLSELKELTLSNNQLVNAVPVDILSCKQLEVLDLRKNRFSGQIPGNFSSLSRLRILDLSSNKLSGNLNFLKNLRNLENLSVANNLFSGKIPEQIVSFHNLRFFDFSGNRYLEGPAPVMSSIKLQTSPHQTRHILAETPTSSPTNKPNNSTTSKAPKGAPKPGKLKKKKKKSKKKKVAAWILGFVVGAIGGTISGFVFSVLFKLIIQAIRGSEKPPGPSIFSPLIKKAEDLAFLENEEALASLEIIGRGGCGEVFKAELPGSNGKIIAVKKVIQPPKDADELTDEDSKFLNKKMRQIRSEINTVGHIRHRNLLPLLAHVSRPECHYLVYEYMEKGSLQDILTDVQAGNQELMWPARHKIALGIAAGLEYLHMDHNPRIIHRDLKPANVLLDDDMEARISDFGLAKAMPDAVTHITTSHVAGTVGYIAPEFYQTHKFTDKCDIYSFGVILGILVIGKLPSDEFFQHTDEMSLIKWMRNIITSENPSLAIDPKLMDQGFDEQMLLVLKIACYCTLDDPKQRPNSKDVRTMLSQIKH
Assay: co-IP

- binding: binds
B1: EDS1 (protein, UniProt Q9XF23 1-623)
chain: MAFEALTGINGDLITRSWSASKQAYLTERYHKEEAGAVVIFAFQPSFSEKDFFDPDNKSSFGEIKLNRVQFPCMRKIGKGDVATVNEAFLKNLEAVIDPRTSFQASVEMAVRSRKQIVFTGHSSGGATAILATVWYLEKYFIRNPNVYLEPRCVTFGAPLVGDSIFSHALGREKWSRFFVNFVTRFDIVPRITLARKASVEETLPHVLAQLDPRNSSVQESEQRITEFYTSVMRDTSTVANQAVCELTGSAEAILETLSSFLELSPYRPAGTFVFSTEKRLVAVNNSDAILQMLFYTCQASDEQEWSLIPFRSIRDHHSYEELVQSMGMKLFNHLDGENSIESSLNDLGVSTRGRQYVQAALEEEKKRVENQKKIIQVIQQERFLKKLAWIEDEYKPKCQAHKNGYYDSFKVSNEENDFKANVKRAELAGVFDEVLGLLKKCQLPDEFEGDIDWIKLATRYRRLVEPLDIANYHRHLKNEDTGPYMKRGRPTRYIYAQRGYEHHILKPNGMIAEDVFWNKVNGLNLGLQLEEIQETLKNSGSECGSCFWAEVEELKGKPYEEVEVRVKTLEGMLREWITAGEVDEKEIFLEGSTFRKWWITLPKNHKSHSPLRDYMMDEITDT

- binding: binds
B2: PAD4-HA (protein, UniProt Q9S745 1-541)
chain: MDDCRFETSELQASVMISTPLFTDSWSSCNTANCNGSIKIHDIAGITYVAIPAVSMIQLGNLVGLPVTGDVLFPGLSSDEPLPMVDAAILKLFLQLKIKEGLELELLGKKLVVITGHSTGGALAAFTALWLLSQSSPPSFRVFCITFGSPLLGNQSLSTSISRSRLAHNFCHVVSIHDLVPRSSNEQFWPFGTYLFCSDKGGVCLDNAGSVRLMFNILNTTATQNTEEHQRYGHYVFTLSHMFLKSRSFLGGSIPDNSYQAGVALAVEALGFSNDDTSGVLVKECIETATRIVRAPILRSAELANELASVLPARLEIQWYKDRCDASEEQLGYYDFFKRYSLKRDFKVNMSRIRLAKFWDTVIKMVETNELPFDFHLGKKWIYASQFYQLLAEPLDIANFYKNRDIKTGGHYLEGNRPKRYEVIDKWQKGVKVPEECVRSRYASTTQDTCFWAKLEQAKEWLDEARKESSDPQRRSLLREKIVPFESYANTLVTKKEVSLDVKAKNSSYSVWEANLKEFKCKMGYENEIEMVVDESDAMET
